# Assay results published in PubChem BioAssay AID1671190 (National Center for Advancing Translational Sciences (NCATS), 2021).
# Amino acid sequences for entries named in this document (tags omitted).
# UniProt P18054, whole entry, looked up: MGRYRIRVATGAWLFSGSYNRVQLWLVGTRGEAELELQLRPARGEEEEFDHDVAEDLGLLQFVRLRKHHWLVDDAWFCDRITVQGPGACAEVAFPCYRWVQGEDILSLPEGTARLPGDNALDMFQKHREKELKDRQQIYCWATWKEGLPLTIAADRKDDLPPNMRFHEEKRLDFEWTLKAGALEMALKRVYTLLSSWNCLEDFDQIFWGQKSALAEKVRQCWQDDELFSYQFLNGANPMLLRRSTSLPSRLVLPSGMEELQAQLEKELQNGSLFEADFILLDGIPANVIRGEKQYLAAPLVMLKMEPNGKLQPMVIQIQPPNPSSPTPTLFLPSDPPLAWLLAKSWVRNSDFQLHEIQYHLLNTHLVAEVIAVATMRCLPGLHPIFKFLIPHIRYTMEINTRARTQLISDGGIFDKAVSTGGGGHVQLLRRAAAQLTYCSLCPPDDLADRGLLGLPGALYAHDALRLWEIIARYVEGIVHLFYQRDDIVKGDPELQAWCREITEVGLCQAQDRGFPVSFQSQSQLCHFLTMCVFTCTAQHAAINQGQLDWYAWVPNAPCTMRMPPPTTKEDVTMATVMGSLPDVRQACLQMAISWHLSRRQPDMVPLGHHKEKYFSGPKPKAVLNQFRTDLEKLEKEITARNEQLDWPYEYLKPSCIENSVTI
# The campaign covered roughly 580,000 compounds. About 6,100 (1.1%) were called active. The inconclusive results got no clear call from the source; some entries with a clear call stand among them for comparison. The call rests on the fitted dose curve; in most records, active means well fitted inhibition curve with a large enough effect; inconclusive means small, poorly fitted or top-dose-only effect, or another doubt; inactive means no such curve, though single readings can be large or run the other way. Potencies beside an inconclusive call are fits to weak or partial responses and may not hold up.
# Target: Polyunsaturated fatty acid lipoxygenase ALOX12 (Homo sapiens) (UniProt P18054)
# Assay: Primary qHTS assay for inhibitors of human arachidonate 12S-lipoxygenase (ALOX12): Round 2
# Details: purified 12hLO, xylenol orange hydroperoxide absorbance; activity change, negative = inhibition: at 108 µM (top of the series) unless noted
# Summary of the method: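 Purified human 12hLO (150 nM final) in 25 mM Hepes, 0.01% Triton X-100, pH 7.0 was preincubated 15 min at room temperature with compound. Then 40 uM arachidonic acid was added, 30 min. Hydroperoxide was read by Fe-XO absorbance ratio 573/405 nm.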
# On the % scale 0 is the no-effect control and ±100 the full control effect; potency means the concentration at half of the fitted maximal effect.
Compound,"activity change, negative = inhibition",Potency
CN(C)CCNc1oc(-c2ccc(S(=O)(=O)N3CCOCC3)cc2)nc1C#N,inactive: 49.1%,
O=C(OCC(=O)N1CCC(Cc2ccccc2)CC1)c1ccccc1NCCO,,"inconclusive: 63.1 µM [inhibitor, partial curve, poor fit]"
Cn1c(=O)c2c(nc(NCCO)n2Cc2ccccc2F)n(C)c1=O,inactive: 19.5%,
O=C(c1nn(Cc2ccccc2)c(=O)c2ccccc12)N1CCN(C/C=C/c2ccccc2)CC1,inactive: 345%,
COC[C@@H]1CCCN1[C@H]1CS(=O)(=O)N[C@@H]1COCc1ccccc1,,"inconclusive: 1.41 µM [inhibitor, full curve, poor fit]"
O=C(Nc1ccnn1C1CCN(CCCc2ccccc2)CC1)c1ccccc1Cl,,"inconclusive: 126 µM [inhibitor, partial curve, poor fit]"
Cc1cc(C(=O)Nc2cccc(-c3nc(CNC(=O)c4sc(C)nc4C)c(C)o3)c2)c(C)o1,,"inconclusive: 112 µM [inhibitor, single point]"
Cc1cc(OCC(=O)Nc2nc3c(s2)CCCC3)cc(C)c1Cl,,"inconclusive: 35.5 µM [inhibitor, partial curve, poor fit]"
CC(C)(C)C(=O)N1N=C(c2ccc(NS(C)(=O)=O)cc2)CC1c1cccs1 (configuration not stated),inactive: -11%,
Nc1c(Cl)cc(C2=NCCn3c2c2ccccc2[n+]3[O-])cc1Cl,inactive: -17.1%,
c1ccc(N2CCCCC2)c(Nc2nc3ccccc3n3cnnc23)c1,inactive: -0.0291%,
Cc1ccc2c(=O)cc(C(=O)NCc3ccccc3)oc2c1C,,"inconclusive: 126 µM [inhibitor, single point]"
CCN(CC)C(=O)c1sc(NC(=S)N2CCN(C(=O)C3CCCO3)CC2)c(C(=O)OC)c1C (configuration not stated),inactive: 1.13%,
COC(=O)C1CN(Cc2ccc(OC)cc2)CCS(=O)(=O)N1Cc1cn(CCOC(C)=O)nn1 (configuration not stated),,"inconclusive: 22.4 µM [inhibitor, single point]"
CCc1ccc(-c2[nH]c3c(c2-c2ccc(OC)cc2)c(=O)[nH]c(=O)n3C)cc1,,"inconclusive: 44.7 µM [inhibitor, partial curve, poor fit]"
Cc1ccc(C)n1-c1ccc(N(C)C)cc1,,"inconclusive: 89.1 µM [inhibitor, partial curve, poor fit]"
CCCc1nnc2sc(-c3ccc4c(c3)OCCO4)nn12,,"inconclusive: 100 µM [inhibitor, single point]"
Cc1cc(C(=O)COC(=O)C2=NNC(=O)CC2)c(C)n1-c1cccc(C(F)(F)F)c1,inactive: -5.47%,
COc1ccc(-c2nn(-c3ccccc3)cc2C(=O)NC(=S)Nc2cc(Cl)ccc2Cl)cc1,,"inconclusive: 1.58 µM [inhibitor, full curve, poor fit]"
Cc1ccc(-n2ncc3c(N4CCCCC4)ncnc32)cc1,,"inconclusive: 100 µM [inhibitor, single point]"
CC1CCC2(CC1)NC(=O)N(CC(=O)Nc1cc(C(F)(F)F)ccc1Cl)C2=O (configuration not stated),,"inconclusive: 39.8 µM [inhibitor, partial curve]"
CC(C)NC(=O)CN(C)CC(O)COc1cc(Cl)ccc1Cl (configuration not stated),,"inconclusive: 39.8 µM [inhibitor, partial curve, poor fit]"
COc1ccc(C(=O)NC(C)c2ccccc2)cc1Br (configuration not stated),inactive: 3.54%,

Compound,"activity change, negative = inhibition",Potency
C=CCc1ccc(OCCCCCN2CCOCC2)c(OC)c1,,"inconclusive: 0.316 µM [inhibitor, full curve, poor fit]"
O=C1C=C(NCCc2cc(Br)c(O)c(Br)c2)C(=O)c2ncccc21,,active: 35.5 µM
Cc1ccc(NC(=O)c2nc[nH]c2C(=O)N2CCC(C)CC2)cc1,inactive: -19.2%,
CCS(=O)(=O)c1nc(NC(C)=O)n[nH]1,,"inconclusive: 0.794 µM [inhibitor, full curve, poor fit]"
CCOC(=O)C1=C(C)Nc2sc(C(=O)c3ccc(C)cc3)c(N)c2C1c1ccc(C(=O)OC)cc1 (configuration not stated),,"inconclusive: 126 µM [inhibitor, partial curve, poor fit]"
COc1cccc(Oc2c(C)oc3cc(OC)ccc3c2=O)c1,,"inconclusive: 112 µM [inhibitor, single point]"
O=C(O)C(c1c[nH]c2cc(Br)ccc12)N1CCN(Cc2cccs2)CC1 (configuration not stated),,"inconclusive: 20 µM [inhibitor, partial curve]"
COc1ccc(Nc2ccc(S(=O)(=O)N3CCCCC3)cc2[N+](=O)[O-])cc1OC,inactive: 4.93%,
CN(C(=O)c1ccc(NC(=O)Cc2cccc(NC(=O)C3CCN(C(=O)C4CCCC4)CC3)c2)cc1)C1CC1,,"inconclusive: 25.1 µM [inhibitor, single point]"
O=C(NCc1ccccc1F)C1CC(=O)N(c2ccc3c(c2)OCCO3)C1 (configuration not stated),,"inconclusive: 100 µM [inhibitor, single point]"
CCOC(=O)c1c(NC(=O)c2ccccc2N(C)S(=O)(=O)c2ccccc2)sc2c1CCCC2,inactive: -1.71%,
S=C(NCc1ccncc1)Nc1ccc(Br)cc1,,"inconclusive: 50.1 µM [inhibitor, single point]"
O=C(NCc1ccco1)c1cccc(NC(=O)c2ccco2)c1,inactive: -18.5%,
COC(=O)c1ccc(NC(=S)NC(=O)c2cccnc2)cc1,inactive: 0%,
Cc1ccc(C(=O)c2sc(Nc3ccc(F)cc3)nc2N)c(C)c1,,"inconclusive: 39.8 µM [inhibitor, partial curve, poor fit]"
CC(C)CC1C(=O)N(Cc2cn(Cc3ccco3)nn2)CCS(=O)(=O)N1Cc1ccc(-c2ccc(Cl)c(Cl)c2)cc1 (configuration not stated),,"inconclusive: 44.7 µM [inhibitor, partial curve, poor fit]"
O=C(Nc1cccnc1)c1ccc(N2CCOCC2)c([N+](=O)[O-])c1,,"inconclusive: 39.8 µM [inhibitor, partial curve, poor fit]"
Cc1c(C(=O)N2CCOc3ccc(Cl)cc3C2)sc2ncnc(NCCc3ccccn3)c12,,"inconclusive: 112 µM [inhibitor, single point]"
Cc1ccc2c(c1)C(C)(c1ccccc1)CC(C)(C)N2C(=O)c1ccc(F)cc1 (configuration not stated),inactive: -10.4%,
CCc1ccc(NC(=O)c2nc3ccccc3nc2N2CCOCC2)cc1,,"inconclusive: 141 µM [inhibitor, partial curve, poor fit]"
O=C1CCCc2[nH]c(=O)c(-c3nc(-c4cccc([N+](=O)[O-])c4)cs3)cc21,,"inconclusive: 112 µM [inhibitor, single point]"
Nc1ncccc1C(=O)OCC(=O)N1CCN(S(=O)(=O)c2ccc(Cl)cc2)CC1,inactive: 21.2%,
Cn1c(NCc2ccco2)nc2c1c(=O)n(Cc1ccc(Cl)c(Cl)c1)c(=O)n2C,,"inconclusive: 50.1 µM [inhibitor, partial curve, poor fit]"

# Reformatted with tabs: 3 of the compounds above
Compound	activity change, negative = inhibition	Potency
C=CCc1ccc(OCCCCCN2CCOCC2)c(OC)c1		inconclusive: 0.316 µM [inhibitor, full curve, poor fit]
CC(C)CC1C(=O)N(Cc2cn(Cc3ccco3)nn2)CCS(=O)(=O)N1Cc1ccc(-c2ccc(Cl)c(Cl)c2)cc1 (configuration not stated)		inconclusive: 44.7 µM [inhibitor, partial curve, poor fit]
O=C(Nc1cccnc1)c1ccc(N2CCOCC2)c([N+](=O)[O-])c1		inconclusive: 39.8 µM [inhibitor, partial curve, poor fit]

# Remaining list, next part.

Compound,"activity change, negative = inhibition",Potency
Cc1cc(-c2nc(-c3ccncc3)no2)ccc1[N+](=O)[O-],,"inconclusive: 141 µM [inhibitor, single point]"
C[N+]1(CCn2ccc3ccccc32)CCCCC1,,"inconclusive: 44.7 µM [inhibitor, partial curve, poor fit]"
CC(=O)Nc1ccc(CN(C)Cc2ccc(-c3ccccc3)cc2)cc1,inactive: 26.5% [at 176 µM],
CC(NC(=O)/C(C#N)=C/c1ccc([N+](=O)[O-])o1)c1ccccc1 (configuration not stated),,"inconclusive: 50.1 µM [inhibitor, partial curve, poor fit]"
CC(Oc1cccc(Cl)c1)C(=O)NC1CC(C)(C)NC(C)(C)C1 (configuration not stated),,"inconclusive: 89.1 µM [inhibitor, partial curve, poor fit]"
CC1(C(=O)NS(=O)(=O)c2ccc(F)cc2F)CCN1C(=O)Cc1ccc(-c2ccccc2)cc1 (configuration not stated),,"inconclusive: 50.1 µM [inhibitor, partial curve, poor fit]"
N#C/C=C\Oc1ccc(Cl)cc1N,,"inconclusive: 50.1 µM [inhibitor, partial curve, poor fit]"
CCOc1ccc(-n2cc(-c3ccc(OC)c(OC)c3)[nH]c2=S)cc1,,"inconclusive: 44.7 µM [inhibitor, partial curve, poor fit]"
COc1cccc(CN2CCC(C(=O)N3CCCCCCNC(=O)CC3)CC2)c1,inactive: 53.1%,
O=C1C=C(c2cnc3ccccc3c2)C[C@@H](c2ccc3c(c2)OCO3)C1,,"inconclusive: 141 µM [inhibitor, single point]"
Cc1ccc(NC(=O)Nc2ccc(C)n(CC(=O)NC3CCCCC3)c2=O)cc1,,"inconclusive: 79.4 µM [inhibitor, single point]"
O=C1OCC2(CCN(Cc3c[nH]c4ccccc34)C2)N1Cc1ccccc1 (configuration not stated),,active: 50.1 µM
CC(C)Oc1ccc2c(NC(=O)c3ncc(F)cc3F)nn(CC(F)(F)F)c2c1,inactive: 31.3%,
O=[N+]([O-])C(/C=C(/Cl)[N+](=O)[O-])=C(N1CCCCC1)N1CCCCC1,,"inconclusive: 35.5 µM [inhibitor, single point]"
N#Cc1ccc(NC(=O)COC(=O)CNC(=O)C2CCCCC2)cc1,inactive: 0%,
CCOC(=O)C1(C)CCN1C(=O)c1cccnc1Oc1ccccc1 (configuration not stated),,"inconclusive: 39.8 µM [inhibitor, partial curve, poor fit]"
COc1ccc2nc(SCC(=O)NCc3ccc(OC)c(OC)c3)[nH]c2c1,inactive: -0.188%,
CC(C)(C)c1ccc(C(=O)NC(CC(=O)O)c2ccc(C(C)(C)C)cc2)cc1 (configuration not stated),,"inconclusive: 70.8 µM [inhibitor, single point]"
COc1ccc(Cl)cc1NC(=O)CC(C)c1ccccc1 (configuration not stated),,"inconclusive: 31.6 µM [inhibitor, partial curve, poor fit]"
CC1CCC(C(=O)NC(Cc2ccccc2)C(=O)O)CC1 (configuration not stated),inactive: -0.629%,
O=C(CSc1cccc2cccc(Cl)c12)Nc1ccc2ccccc2c1,,"inconclusive: 28.2 µM [inhibitor, partial curve, poor fit]"
